# Experimental data reported in PMC10685313 (2023).
# B1: progesterone receptor membrane component 1, Myc-tagged wild type (PGRMC1-myc) [not stated] / two pore channel TPC1, GFP-tagged (TPC1-GFP) [human] (parent complex)
# chain 1: MAAEDVVATGADPSDLESGGLLHEIFTSPLNLLLLGLCIFLLYKIVRGDQPAASGDSDDDEPPPLPRLKRRDFTPAELRRFDGVQDPRILMAINGKVFDVTKGRKFYGPEGPYGVFAGRDASRGLATFCLDKEALKDEYDDLSDLTAAQQETLSDWESQFTFKYHHVGKLLKEGEEPTVYSDEEEPKDESARKND
# chain 2: not shown
# Variants of: B1
# Experiment: co-immunoprecipitation (TPC1-GFP IP, anti-myc Western blot densitometry); U2OS cells co-expressing PGRMC1-myc constructs and TPC1-GFP; n = 2; parent: 100; read off a plot
row,percent of parent,Variant
1,~18 % ctrl,chain 1 Q149P
2,~5 % ctrl,chain 1 Q159P
3,~98 % ctrl,chain 1 S143P
4,~110 % ctrl,chain 1 V167P
